According to patent US10208017B2, “Heterocycles capable of modulating T-cell responses, and methods of using same” (Nogra Pharma Limited, priority 2012, dated 2019):
For at least one compound, name, drawing or mass did not settle the structure.

Tested on: interaction between lymphocyte-specific protein tyrosine kinase (LCK) and its chaperone Hsp90
Assay: Immunoprecipitation of Lck and blotting for Hsp90
Type: cell-based, Human
Conditions: Lck immunoprecipitation, PHA stimulated lymphocytes
Protocol: Lymphocytes were seeded in a 6 well plate (1.0·10^7/well), pretreated for 10 minutes with S3.1, S3.4 or dexamethasone and stimulated for 10 minutes with PHA. The experiment was stopped by adding a large volume of ice cold PBS to the cells. The suspension was transferred to a tube, briefly spinned down in a centrifuge and the supernatant removed. The pellet was lysed by adding cold lysis buffer (0.1% NP40, 50 mM TrisHCl, 1 mM EDTA, 1 mM EGTA, 150 mM NaCl, 200 μM Na3VO4, 10 mM NaF and protease inhibitors) and incubating 20 minutes on ice.
The kinase Lck acts as a gate keeper to T cell receptor (TCR) related signaling as it is one of the first and most up stream kinases to be activated upon stimulation of the TCR. As downstream signaling of the TCR is inhibited by S3.1 and S3.4 treatment interactions with Lck were investigated by immunoprecipitating Lck and blotting for Hsp90. For immunprecipitation experiments 1.0·10^7 cells were used per condition. Cells were pelleted and lysed as described previously. The supernatant was precleared by adding 10 μl Protein A/G UltraLink resin (Pierce Biotechnology, Rockford, USA) for 30 minutes at 4° C. Beads were spinned down and discarded. Samples were incubated with 2 μg primary antibody and 25 μl beads for 2 hours at 4° C. Beads were washed with PBS, sample buffer was added and heated to 95° C. for 5 minutes.

C[C@@H]1C[C@H]2[C@@H]3CCC4=CC(=O)C=C[C@]4(C)[C@@]3(F)[C@@H](O)C[C@]2(C)[C@@]1(O)C(=O)CO [dexamethasone, reference compound]
interaction between LCK and its chaperone Hsp90: lost
